PubChem BioAssay AID1259405, NCATS – 2018
This is a random part of about 50,000 reagents tested. In the full data, about 4,000 (8%) got an active call. 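Mouse siRNA library applied to hamster cells; one well for each siRNA.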 Reagents against one gene are numbered here. Reagent sequences are not shown.

Purpose: 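Mouse-designed siRNAs used to find CHO productivity engineering targets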 (primary screen)
System: Chinese hamster CHO-K1 ovary cells with stable secreted eGFP expression
Reagents: single siRNA against mouse genes, 0.8 pmol siRNA per well (2 µl of 400 nM stock)
Time to read-out: 3 days
Read-out: 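Per-well intracellular GFP measured by laser scanning cytometry, plus viability from ATP luminescence, each relative to plate median of non-targeting control wells, in %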
Scale: GFP, % of control: higher = more GFP per well, higher productivity; viability (ATP), % of control: higher = more viable cells (more ATP)
Rule for the call: 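Called active when intracellular GFP, relative to negative control, is at or above 120%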

| gene | reagent no. | GFP, % of control | viability (ATP), % of control | call |
| --- | --- | --- | --- | --- |
| Blm | 1 | 178 | 118 | active |
| Blm | 2 | 56.7 | 57 | inactive |
| Blm | 3 | 84.6 | 88.5 | inactive |
| Pi4k2b | 1 | 72.7 | 46.5 | inactive |
| Oosp1 | 1 | 78.4 | 90.3 | inactive |
| Oosp1 | 2 | 118 | 79.2 | inactive |
| Oosp1 | 3 | 68.1 | 68.5 | inactive |
| Adam34l | 1 | 81.6 | 49.5 | inactive |
| Adam34l | 2 | 45 | 47.8 | inactive |
| Adam34l | 3 | 77.5 | 51.6 | inactive |
| Epha3 | 1 | 16.5 | 25.9 | inactive |
| Ifna4 | 1 | 75.4 | 65.3 | inactive |
| Ifna4 | 2 | 67.6 | 70.8 | inactive |
| Ifna4 | 3 | 54 | 53.7 | inactive |
| Defa5 | 1 | 61.7 | 84 | inactive |
| Defa5 | 2 | 103 | 81.8 | inactive |
| Defa5 | 3 | 88.1 | 100 | inactive |
| Ftl2-ps | 1 | 55.2 | 74.2 | inactive |
| Ftl2-ps | 2 | 43.1 | 66.8 | inactive |
| Ftl2-ps | 3 | 80.7 | 92.7 | inactive |
| Peli2 | 1 | 71.6 | 55.9 | inactive |
| Peli2 | 2 | 89.6 | 60.4 | inactive |
| Peli2 | 3 | 52.4 | 62.4 | inactive |
| Rictor | 1 | 69.8 | 67.6 | inactive |
| Rictor | 2 | 71.9 | 48.3 | inactive |
| Rictor | 3 | 124 | 104 | active |
| Ccr2 | 1 | 48.4 | 25.7 | inactive |
| Ccr2 | 2 | 86.5 | 96.5 | inactive |
| Ccr2 | 3 | 69.3 | 60.6 | inactive |
| Rp9 | 1 | 31.4 | 34.7 | inactive |
| Rp9 | 2 | 79.6 | 67.8 | inactive |
| Rp9 | 3 | 55.9 | 50.5 | inactive |
| Pram1 | 1 | 74.5 | 59.8 | inactive |
| Pram1 | 2 | 25.4 | 50.7 | inactive |
| Pram1 | 3 | 76.7 | 91.6 | inactive |
| Chmp4c | 1 | 61.3 | 65.7 | inactive |
| Chmp4c | 2 | 52 | 47.9 | inactive |
| Chmp4c | 3 | 60.3 | 77.9 | inactive |
| Cyp2c66 | 1 | 69 | 74.4 | inactive |
| Cyp2c66 | 2 | 79.2 | 74.6 | inactive |
| Cyp2c66 | 3 | 51.4 | 63.8 | inactive |
| Pip5kl1 | 1 | 63.9 | 79.4 | inactive |
| Abce1 | 1 | 118 | 111 | inactive |
| Abce1 | 2 | 39.6 | 59.6 | inactive |
| Enc1 | 1 | 62.7 | 67.7 | inactive |
| Enc1 | 2 | 121 | 126 | active |
| Or6c69 | 1 | 37.3 | 47.2 | inactive |
| Or6c69 | 2 | 63.6 | 61.3 | inactive |
| Or6c69 | 3 | 71.3 | 134 | inactive |
| Stc1 | 1 | 103 | 54.6 | inactive |
| Stc1 | 2 | 115 | 84.8 | inactive |
| Stc1 | 3 | 53.7 | 96.9 | inactive |
| Rbm38 | 1 | 85.4 | 89.8 | inactive |
| Rbm38 | 2 | 71.8 | 70.7 | inactive |
| Lsr | 1 | 75.2 | 89.1 | inactive |
| Lsr | 2 | 84.3 | 82.4 | inactive |
| Lsr | 3 | 85.1 | 63.1 | inactive |
| Myo18a | 1 | 61.1 | 77.3 | inactive |
| Myo18a | 2 | 126 | 77.6 | active |
| Lypla2 | 1 | 89.9 | 69.8 | inactive |
| Lypla2 | 2 | 104 | 93.6 | inactive |
| Lypla2 | 3 | 55.1 | 106 | inactive |
| Nfib | 1 | 104 | 103 | inactive |
| Nfib | 2 | 80 | 77.5 | inactive |
| Nfib | 3 | 79.6 | 92.3 | inactive |
| Hpdl | 1 | 97.9 | 94.5 | inactive |
| Hpdl | 2 | 70.3 | 50.9 | inactive |
| Hpdl | 3 | 59.5 | 72.9 | inactive |
| Sema3c | 1 | 75.9 | 78.3 | inactive |
| Sema3c | 2 | 69.7 | 79.5 | inactive |
| Sema3c | 3 | 58.5 | 50.7 | inactive |
| Or6c66 | 1 | 83.4 | 106 | inactive |
| Or6c66 | 2 | 66.4 | 78.2 | inactive |
| Or6c66 | 3 | 102 | 79 | inactive |
| Whr1 | 1 | 52.7 | 44.5 | inactive |
| Whr1 | 2 | 125 | 101 | active |
| Whr1 | 3 | 136 | 125 | active |
| Ccdc202 | 1 | 71.9 | 71.4 | inactive |
| Ccdc202 | 2 | 48.9 | 61.4 | inactive |
| Ccdc202 | 3 | 69.1 | 82.2 | inactive |
| Lamp5 | 1 | 74.3 | 45.5 | inactive |
| Lamp5 | 2 | 60.8 | 83 | inactive |
| Lamp5 | 3 | 90.8 | 96.1 | inactive |
| Slamf9 | 1 | 39.7 | 26 | inactive |
| Slamf9 | 2 | 71.1 | 91.3 | inactive |
| Slamf9 | 3 | 12.6 | 17.6 | inactive |

Sorted by “GFP, % of control” (descending): 8 of the entries above
| gene | reagent no. | GFP, % of control | viability (ATP), % of control | call |
| --- | --- | --- | --- | --- |
| Whr1 | 3 | 136 | 125 | active |
| Whr1 | 2 | 125 | 101 | active |
| Or6c66 | 3 | 102 | 79 | inactive |
| Lamp5 | 1 | 74.3 | 45.5 | inactive |
| Ccdc202 | 1 | 71.9 | 71.4 | inactive |
| Ccdc202 | 3 | 69.1 | 82.2 | inactive |
| Whr1 | 1 | 52.7 | 44.5 | inactive |
| Ccdc202 | 2 | 48.9 | 61.4 | inactive |
